These are yes or no findings as the source states them, for the method shown. Some results given as binding are weak or reduced against the parent protein; the word gives no strength.
B1: WRKY44 (protein, UniProt Q9ZUU0 1-429)
chain: MEVNDGERVVIAKPVASRPSSSSGFRTFTELLTDSVTVSPQTTCHEIVDAAIRPKTLRFNQPVAASVSCPRAEVKGIGNGMSCDDDSDSRNYVVYKPKAKLVSKATVSALANMLQGNRQQTWRQSEAVSYGKSVSQGTHRAGPNLVQKVPSFTESETSTGDRSSVDGYNWRKYGQKQVKGSECPRSYYKCTHPKCPVKKKVERSVEGQVSEIVYQGEHNHSKPSCPLPRRASSSISSGFQKPPKSIASEGSMGQDPNNNLYSPLWNNQSNDSTQNRTEKMSEGCVITPFEFAVPRSTNSNPGTSDSGCKSSQCDEGELDDPSRSKRRKNEKQSSEAGVSQGSVESDSLEDGFRWRKYGQKVVGGNAYPRSYYRCTSANCRARKHVERASDDPRAFITTYEGKHNHHLLLSPPSSSTLPFNSPQLSKQTI
B2: WRKY20 (protein, UniProt Q93WV0-1 1-557)
chain: MNPQANDRKEFQGDCSATGDLTAKHDSAGGNGGGGARYKLMSPAKLPISRSTDITIPPGLSPTSFLESPVFISNIKPEPSPTTGSLFKPRPVHISASSSSYTGRGFHQNTFTEQKSSEFEFRPPASNMVYAELGKIRSEPPVHFQGQGHGSSHSPSSISDAAGSSSELSRPTPPCQMTPTSSDIPAGSDQEESIQTSQNDSRGSTPSILADDGYNWRKYGQKHVKGSEFPRSYYKCTHPNCEVKKLFERSHDGQITDIIYKGTHDHPKPQPGRRNSGGMAAQEERLDKYPSSTGRDEKGSGVYNLSNPNEQTGNPEVPPISASDDGGEAAASNRNKDEPDDDDPFSKRRRMEGAMEITPLVKPIREPRVVVQTLSEVDILDDGYRWRKYGQKVVRGNPNPRSYYKCTAHGCPVRKHVERASHDPKAVITTYEGKHDHDVPTSKSSSNHEIQPRFRPDETDTISLNLGVGISSDGPNHASNEHQHQNQQLVNQTHPNGVNFRFVHASPMSSYYASLNSGMNQYGQRETKNETQNGDISSLNNSSYPYPPNMGRVQSGP

Amino acid sequences for entries named in this document (tags omitted).
UniProt Q9SK03: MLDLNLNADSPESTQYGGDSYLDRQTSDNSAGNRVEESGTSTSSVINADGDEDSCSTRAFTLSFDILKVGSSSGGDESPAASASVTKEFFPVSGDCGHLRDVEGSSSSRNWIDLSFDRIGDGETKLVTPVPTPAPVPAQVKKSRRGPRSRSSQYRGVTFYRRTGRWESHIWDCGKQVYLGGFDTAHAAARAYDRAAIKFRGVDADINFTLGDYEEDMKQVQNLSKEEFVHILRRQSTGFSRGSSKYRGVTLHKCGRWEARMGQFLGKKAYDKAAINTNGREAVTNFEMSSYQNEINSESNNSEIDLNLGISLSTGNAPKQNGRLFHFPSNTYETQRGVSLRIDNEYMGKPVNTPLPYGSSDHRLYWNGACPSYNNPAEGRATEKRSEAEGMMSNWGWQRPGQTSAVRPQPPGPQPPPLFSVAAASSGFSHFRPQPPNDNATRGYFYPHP
UniProt Q93WU6: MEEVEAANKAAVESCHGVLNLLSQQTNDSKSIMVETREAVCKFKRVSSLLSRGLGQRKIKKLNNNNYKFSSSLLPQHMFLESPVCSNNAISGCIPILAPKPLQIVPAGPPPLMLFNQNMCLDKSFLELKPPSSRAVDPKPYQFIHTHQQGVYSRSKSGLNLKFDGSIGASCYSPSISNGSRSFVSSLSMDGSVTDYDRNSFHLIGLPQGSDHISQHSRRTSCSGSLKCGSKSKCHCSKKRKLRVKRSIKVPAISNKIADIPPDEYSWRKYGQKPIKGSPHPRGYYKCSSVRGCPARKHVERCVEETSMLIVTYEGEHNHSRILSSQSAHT

biological target: TOE1 (Target of EARLY ACTIVATION TAGGED 1) (Arabidopsis thaliana) (UniProt Q9SK03); experiment: two-hybrid; pGBKT7-TOE1 as bait in Y2H Gold, pGADT7-WRKY as prey in Y187, mated; spotted on SD/-Leu/-Trp/-His/-Ade/X-alpha-gal/AbA agar, 30°C; empty pGBKT7 as control

Molecule | binding
WRKY74 (from UniProt Q93WU6 1-330) | no binding
B1 | binds
B2 | no binding
